According to publication PMC6053445:

Target: T1, Sap1-c (Sap1 E109D) (Schizosaccharomyces pombe) (UniProt P40847)
T1 sequence (looked up, limits assumed): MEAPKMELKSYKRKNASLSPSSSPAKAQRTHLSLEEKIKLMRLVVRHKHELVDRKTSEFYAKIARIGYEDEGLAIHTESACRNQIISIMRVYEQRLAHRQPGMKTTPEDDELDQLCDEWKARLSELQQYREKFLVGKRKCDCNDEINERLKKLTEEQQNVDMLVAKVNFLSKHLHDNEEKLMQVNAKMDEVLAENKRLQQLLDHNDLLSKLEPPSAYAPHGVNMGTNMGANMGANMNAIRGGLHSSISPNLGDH
Assay: EMSA
Conditions: two-fold increase stated for DNA in general, not per site; EMSA: protein 0.68-5120 nM (dilution buffer 10 mM HEPES pH 7.5, 100 mM NaCl, 5% glycerol) in 20 mM HEPES pH 7.6, 50 mM KCl, 3 mM MgCl2, 8% glycerol, 0.2% NP-40; recombinant protein; label: 32P

Q: How did the binding signal (fold affinity vs wild-type Sap1) turn out when “AACCAGGGATTCAGTGCAGCTATCTTG (double strand) [Ter1]” was run?
A: 2

Q: How did the binding signal (fold affinity vs wild-type Sap1) turn out when “AGCAATACTACACTACGCTATAATACACTACGTTGAGTATCACTATATGT (double strand) [Tf2]” was run?
A: 2

For at least one entry, the source does not settle the construct or the ends of the probe. The direction of at least one scale is not stated here. Where a protein sequence is shown, tags need not be part of it.
